From US10617664B2, “Brain derived PPARα ligands” (Rush University Medical Center, priority 2015, dated 2020)
For at least one compound, name, drawing or mass did not settle the structure.

Tested on: PPRE-driven luciferase activity
Assay: PPRE-luciferase assay in Pparb-null astrocytes with PPARγ antagonist GW9662
Format: cell-based, mouse
Conditions: rosiglitazone stimulation
Experimental: FIG. 16A) Pparb-null primary astrocytes plated at 60-70% confluence in 12-well plates were transfected with 0.25 μg of tkPPREx3-Luc (a PPRE-dependent luciferase reporter construct). Twenty-four hours after transfection, cells were treated with different concentrations of GW9662 for 30 min followed by stimulation with rosiglitazone. After 4 h, luciferase activities were assayed. […] After transfection, cells were also treated with GW9662 followed by stimulation with OCT (FIG. 16B), HEX (FIG. 16C) and HMB (FIG. 16D).
These astrocytes were pre-treated with PPARγ-antagonist GW9662 to nullify the involvement of PPARγ in reporter assay.

CN(CCOc1ccc(CC2SC(=O)NC2=O)cc1)c1ccccn1 (stereo not shown) [rosiglitazone, reference compound]
PPRE-luciferase activity: increase
